Experimental data as given in patent US10952958B2, “Donezil pamoate, method of preparation and use thereof” (priority 2011, dated 2021).
Counter-ions that a name gives are not always drawn. Like-named read-outs stand apart in the source and are kept apart here.

Tests used:
[1] = for stability of the salt form: physicochemical characterization studies, comparison among donepezil pamoate salt forms
[2] = female rats, single intramuscular injection, 13.5 mg/kg (in donepezil), n=5, FIG. 11

COc1cc2c(cc1OC)C(=O)C(CC1CCN(Cc3ccccc3)CC1)C2.O=C(O)c1cc2ccccc2c(Cc2c(O)c(C(=O)O)cc3ccccc23)c1O [Example 5, donepezil pamoate]
solid form conversion (XRPD pattern) ([1]; following reformation of a slurry in water): converted to solids with the same XRPD pattern in FIG. 3

COc1cc2c(cc1OC)C(=O)C(CC1CCN(Cc3ccccc3)CC1)C2.O=C(O)c1cc2ccccc2c(Cc2c(O)c(C(=O)O)cc3ccccc23)c1O [anhydrous form, donepezil pamoate]
stability of the salt form [1]: not stable

COc1cc2c(cc1OC)C(=O)C(CC1CCN(Cc3ccccc3)CC1)C2 (stereo not drawn) [donepezil hydrochloride, reference compound]
donepezil plasma concentration profile (in vivo absorption) [2]: rapidly absorbed and then eliminated

COc1cc2c(cc1OC)C(=O)C(CC1CCN(Cc3ccccc3)CC1)C2.O=C(O)c1cc2ccccc2c(Cc2c(O)c(C(=O)O)cc3ccccc23)c1O [donepezil pamoate (2:1), donepezil pamoate]
donepezil plasma concentration profile (in vivo absorption) [2]: sustained level of donepezil plasma concentrations was maintained
stability of the salt form [1]: most stable form
stability of the salt form ([1]; listed as donepezil pamoate salt (hydrated, 2:1 ratio)): most stable salt
